These are yes or no findings as the source states them, for the method shown. Binding seen in cells or lysates may run through a third protein. Binding calls can cover weak binding; strength is not graded here.
Columns and labels:
Assay in all cases: co-IP; reciprocal co-immunoprecipitation after coexpression in HEK293T cells (24 h); TNTE lysis buffer (Tris-HCl pH 7.5, 120 mM NaCl, 1% Triton X-100, 1 mM EDTA); anti-FLAG M2 affinity gel, or rabbit polyclonal mCherry, RFP or GFP antibodies with Protein G Sepharose; beads washed 6x with lysis buffer supplemented with 500 mM NaCl; immunoblot
[1] = target: FLAG-Plk4 K41M (kinase-dead) (human)
[2] = target: Plk4 kinase domain (isolated, deletion construct) (human)
[3] = target: Plk4 polobox domains PB-1/PB-2 (deletion construct) (human)

Measured: binding

B1: RFP-FAM46C (protein, UniProt Q5VWP2 1-391)
chain: MAEESSCTRDCMSFSVLNWDQVSRLHEVLTEVVPIHGRGNFPTLEITLKDIVQTVRSRLEEAGIKVHDVRLNGSAAGHVLVKDNGLGCKDLDLIFHVALPTEAEFQLVRDVVLCSLLNFLPEGVNKLKISPVTLKEAYVQKLVKVCTDTDRWSLISLSNKNGKNVELKFVDSIRRQFEFSVDSFQIILDSLLFFYDCSNNPISEHFHPTVIGESMYGDFEEAFDHLQNRLIATKNPEEIRGGGLLKYSNLLVRDFRPTDQEEIKTLERYMCSRFFIDFPDILEQQRKLETYLQNHFAEEERSKYDYLMILRRVVNESTVCLMGHERRQTLNLISLLALRVLAEQNIIPSATNVTCYYQPAPYVSDGNFSNYYVAHPPVTYSQPYPTWLPCN
binds: all assays above
